PubChem BioAssay AID1259425 | University of Nebraska Medical Center – 2018
The deposit covers about 14,000 reagents; below is an unselected part. Further read-outs or replicates are left out here. The record does not give: the time to read-out.

Purpose: 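Compare each knockdown with KSR1 silencing using changes in marker transcripts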 (primary screen)
Cell system: HCT116 human colon cancer cells
Knock-down reagent: siRNA pool against human genes, 50 nM siRNA
Detection: 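After 50 nM siRNA pool, branched-DNA assay measures six marker transcripts per well, minus blank, normalised to the geometric mean of two housekeeping transcripts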
Scale: BNIP3L mRNA: higher = more BNIP3L transcript after knockdown; NDRG1 mRNA: higher = more NDRG1 transcript after knockdown; BNIP3 mRNA: higher = more BNIP3 transcript after knockdown; ALDOC mRNA: higher = more ALDOC transcript after knockdown

| Gene | BNIP3L mRNA, set 1 | NDRG1 mRNA, set 1 | BNIP3 mRNA, set 1 | ALDOC mRNA, set 1 |
| --- | --- | --- | --- | --- |
| CA4 (GeneID 762) | 0.0574 | 0.122 | 0.265 | 0.0232 |
| LRRC14 (GeneID 9684) | 0.138 | 0.753 | 0.529 | 0.0206 |
| CIAO1 (GeneID 9391) | 0.119 | 0.22 | 0.246 | 0.0325 |
| CLEC10A (GeneID 10462) | 0.162 | 0.532 | 0.303 | 0.0575 |
| HCRT (GeneID 3060) | 0.125 | 0.112 | 0.206 | 0.0216 |
| PRKAA2 (GeneID 5563) | 0.0721 | 0.104 | 0.499 | 0.00489 |
| FBXW9 (GeneID 84261) | 0.194 | 0.156 | 0.317 | 0.146 |
| CRADD (GeneID 8738) | 0.175 | 0.108 | 0.296 | 0.0217 |
| DNMT3A (GeneID 1788) | 0.188 | 0.92 | 0.4 | 0.0541 |
| COPS5 (GeneID 10987) | 0.178 | 1.03 | 0.364 | 0.0222 |
| MLLT3 (GeneID 4300) | 0.111 | 0.189 | 0.288 | 0.019 |
| CCNE1 (GeneID 898) | 0.0879 | 0.117 | 0.244 | 0.0287 |
| LIMA1 (GeneID 51474) | 0.0621 | 0.113 | 0.338 | 0.0242 |
| CALY (GeneID 50632) | 0.138 | 0.247 | 0.263 | 0.0154 |
| PLA2G12A (GeneID 81579) | 0.185 | 0.297 | 0.372 | 0.0446 |
| TEKT3 (GeneID 64518) | 0.206 | 0.243 | 0.306 | 0.0214 |
| CDIP1 (GeneID 29965) | 0.169 | 0.153 | 0.584 | 0.0327 |
| PKP3 (GeneID 11187) | 0.131 | 0.0709 | 0.343 | 0.0402 |
| SEC61A1 (GeneID 29927) | 0.238 | 0.221 | 0.172 | 0.0326 |
| SPHAR (retired record) (GeneID 10638) | 0.109 | 0.18 | 0.248 | 0.0365 |

Single entries from above.
For “ALDOC mRNA, set 1”, CA4 (GeneID 762) shows 0.0232
Under “BNIP3 mRNA, set 1”, CALY (GeneID 50632) has 0.263
